Measured values published in the supplement of paper PMC7125110.
± gives the standard error. Many of these values have a large error.

B1: glmS ribozyme (parent)
chain: AUAAAAGCGCCAGAACUACAGAAAUGUAGUUGACGAGGAGGAGGUUUAUCGAAUUUUCGGCGGAUGCCUCCAAA

Variants of: B1
Assay: self-cleavage kobs at 40 uM GlcN6P; higher = faster cleavage; RNA array
Details: with glucosamine-6-phosphate
How it was run: (§1)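 In situ transcription by E. coli RNA polymerase produced barcoded ribozyme variants on sequenced MiSeq chips, and a hybridised Cy3 probe tracked them at 37 °C. Glucosamine-6-phosphate was flowed in at 40 μM to 10 mM in HEPES/KCl/Mg(OAc)2 buffer. kcat and KM were taken from weighted Michaelis–Menten fits of kobs values from exponential decay fits.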

Variant	self-cleavage kobs at 40 uM GlcN6P [s⁻¹]
G29C U69C	2e-05 ± 1.9e-05
G29U C67A C70A	3.11e-05 ± 2.3e-05
U31C G40A	1.7e-05 ± 1.1e-05
U31G U47C U54A	3.09e-05 ± 1.7e-05
U31G U55A C67A	5.08e-05 ± 2.7e-05
G32A C50U C67U C71A	4.16e-05 ± 2.2e-05
G32A C50U C70A	2.4e-05 ± 2.1e-05
G32A U55C	1.88e-05 ± 1e-05
G32U A52G C70A	2.69e-05 ± 2.4e-05
G32U A53G	2.23e-05 ± 1.6e-05
G32U C70G	1.5e-05 ± 1.3e-05
A33U G59C C70G	3.08e-05 ± 2.6e-05
C34A G63U C70U C71G	5.92e-05 ± 3.4e-05
C34U C70G	3.25e-05 ± 1.8e-05
A36C C58G C71A	3.91e-05 ± 2.5e-05
A36C G62A C70G	3.85e-05 ± 2.9e-05
A36G A52G C68G	2.27e-05 ± 1.8e-05
A36U G40A G43C A52G	6.58e-05 ± 3.4e-05
G38A A48G U56A C68G	2.85e-05 ± 2.8e-05
G38C C58G C61G C67A	3.89e-05 ± 2.3e-05
G38C U69G	2.38e-05 ± 1.7e-05
G38U C50G U55G U57G	3.63e-05 ± 2.5e-05
A39C U65G	1.92e-05 ± 9.8e-06

Variant	self-cleavage kobs at 40 uM GlcN6P [s⁻¹]
A39G G59A C61U C68G	3.41e-05 ± 2.7e-05
A39U U65A	2.42e-05 ± 1.5e-05
G40C U46G	1.18e-05 ± 1.1e-05
A42G U45A U65C	3.05e-05 ± 2.2e-05
G44A U45C	2.01e-05 ± 1.1e-05
G44U A53G	2.51e-05 ± 2.2e-05
U45G C68U	1.45e-05 ± 1.2e-05
U46C U69A	3.56e-05 ± 2.3e-05
U47A U65G U69C	3.69e-05 ± 1.9e-05
C50A U57G U65C C70G	2.92e-05 ± 2.8e-05
C50G G60A	1.95e-05 ± 1.2e-05
C50G U57C G66A	2.64e-05 ± 2.3e-05
C50U C68G	1.64e-05 ± 1.2e-05
A53G C61U C68G	3.84e-05 ± 2.9e-05
A53G G66C	3.21e-05 ± 3e-05
U54A U65G C67U	3.8e-05 ± 2.2e-05
U56G C58G C68G	3.22e-05 ± 2.8e-05
U57A C67G C68U C70U	2.97e-05 ± 2.3e-05
U57G C58G C68U	2.9e-05 ± 2.5e-05
U57G U69G	1.81e-05 ± 1.6e-05
G66U C68G	1.53e-05 ± 1.3e-05
C67G C68A	1.5e-05 ± 1.1e-05

Variants of: B1
Assay: self-cleavage kobs at 640 uM GlcN6P; higher = faster cleavage; RNA array
Details: with glucosamine-6-phosphate
How it was run: as §1

Variant	self-cleavage kobs at 640 uM GlcN6P [s⁻¹]
G32A C50U C67U C71A	5.23e-05 ± 3e-05
G32A C50U C70A	4.23e-05 ± 3e-05
A36C C58G C71A	0.000104 ± 5.5e-05
U47A U65G U69C	0.000253 ± 0.00013
C50G G60A	2.44e-05 ± 1.7e-05
A6C A12C	2.11e-05 ± 1.3e-05
A6G C67A	2.31e-05 ± 1.3e-05
A6G C67U	0.00401 ± 0.0029
A6U A52G C68U	4.52e-05 ± 3.3e-05
A6U C50U C68G C71A	9.64e-05 ± 4.9e-05
A6U G13C C70G	2.98e-05 ± 2.2e-05
A6U U47G	2.39e-05 ± 1.7e-05
A6U U49G U56G C67U C70G	3.02e-05 ± 2.4e-05
G7U C10U G37A C67A	3.14e-05 ± 2.5e-05
C8U A48C G51A U69A	5.14e-05 ± 2.6e-05
C8U C10U C70U	3.08e-05 ± 2.6e-05
C8U G32U U46G C50G C70U	3.79e-05 ± 2e-05
C8U G62A	2.54e-05 ± 1.7e-05

Variant	self-cleavage kobs at 640 uM GlcN6P [s⁻¹]
C8U U69A	3.29e-05 ± 2.5e-05
G9U C16A C34A C50G	5.11e-05 ± 3.4e-05
C10A A14G U31C A36U A64C C67G	0.000222 ± 0.00011
C10A C50U C68A	3.25e-05 ± 3.1e-05
C10A G13U C68A	0.000233 ± 0.00016
C10A G60C G63C C67A C68G C70G C71U	3.19e-05 ± 2.2e-05
C10A U31C U47A C50G G60C C61U	0.000283 ± 0.00021
C10A U47A U57A C70U	4.77e-05 ± 2.5e-05
C10G G59U	1.65e-05 ± 1.3e-05
C10U C67U C70U	3.13e-05 ± 2.7e-05
C11A G51U U65C C68U	3.38e-05 ± 2e-05
C11A U56C	2.54e-05 ± 2.1e-05
C11G A14U C70U	3.26e-05 ± 2.4e-05
C11G U46G U54A C68G	4.3e-05 ± 3.1e-05
C11G U69C	2.54e-05 ± 2.1e-05
C11U A15G G37C U47C U69G	0.000554 ± 0.00029
C11U A52G C70U A72U	2.5e-05 ± 2.4e-05

Variants of: B1
Assay: self-cleavage kobs at 10000 uM GlcN6P; higher = faster cleavage; RNA array
Details: with glucosamine-6-phosphate
How it was run: as §1

Variant	self-cleavage kobs at 10000 uM GlcN6P [s⁻¹]
G32A C50U C67U C71A	2.76e-05 ± 2.1e-05
G32A C50U C70A	1.83e-05 ± 1.6e-05
A36C C58G C71A	2.88e-05 ± 1.5e-05
A36G A52G C68G	1.82e-05 ± 1.7e-05
G38C C58G C61G C67A	2.19e-05 ± 1.9e-05
A39G G59A C61U C68G	2.45e-05 ± 2.4e-05
C50G G60A	0.000722 ± 0.00049
U57G U69G	1.55e-05 ± 1.2e-05
G66U C68G	1.65e-05 ± 1e-05
C8U U69A	0.000654 ± 0.0006

Reprinted from the results shown for reference:
Variant	self-cleavage kobs at 10000 uM GlcN6P [s⁻¹]
A36C C58G C71A	2.88e-05 ± 1.5e-05
A36G A52G C68G	1.82e-05 ± 1.7e-05
G38C C58G C61G C67A	2.19e-05 ± 1.9e-05
A39G G59A C61U C68G	2.45e-05 ± 2.4e-05
C50G G60A	0.000722 ± 0.00049

Variants of: B1
Assay: self-cleavage kobs at 2500 uM GlcN6P; higher = faster cleavage; RNA array
Details: with glucosamine-6-phosphate
How it was run: as §1

Variant	self-cleavage kobs at 2500 uM GlcN6P [s⁻¹]
U57G C58G C68U	3.96e-05 ± 2.2e-05
A6G C67A	4.49e-05 ± 2.7e-05
A6G C67U	4.39e-05 ± 2.6e-05
C8U G62A	1.28e-05 ± 1.1e-05
C10A U47A U57A C70U	4.26e-05 ± 2.8e-05
C10U C67U C70U	2.42e-05 ± 1.9e-05
C11A G51U U65C C68U	4.36e-05 ± 2.8e-05
